The nature of one series: physchem. Particulars: Solubility (mg/mL).
Setting [1] is: 20% hydroxypropyl-β-cyclodextrin phosphate buffer.
[2] abbreviates: 20% hydroxypropyl-γ-cyclodextrin phosphate buffer.

Converted amounts (≈) assume the structure as drawn. Read-outs that look alike come from different tables or passages of the source.

Here are results for one compound from EP0335545B2, “Pharmaceutical formulations for parenteral use” (UNIVERSITY OF FLORIDA, priority 1988, dated 1989).

For orientation: solubility means the concentration that dissolves in the medium under given conditions. Read a high solubility as much dissolved substance.

For `CC(=O)[C@H]1CC[C@H]2[C@@H]3CC[C@H]4C[C@H](O)CC[C@]4(C)[C@H]3C(=O)C[C@]12C` [Alfaxalone], the “solubility” value under setting [1] is 24.42 mg/mL (≈ 73.4 mM); the “solubility” value under setting [2] is recorded as 15.11 mg/mL (≈ 45.4 mM); the solubility in “physchem” (setting [1]) was 22.8 mg/mL (≈ 68.7 mM); the solubility in the series “physchem” (setting [2]) came to 18.4 mg/mL (≈ 55.4 mM); the solubility in “physchem” (20% maltosyl-β-cyclodextrin phosphate buffer) worked out at 20 mg/mL (≈ 60.2 mM).
